Experimental data taken from US20250304712A1.
No constants are given. Whether binding was seen depends on the method and setting. Some entries that bind do so weakly or less than the wild type.

By UniProt entry, the sequences of proteins in these tests, tags left out. Residues count along the entry.
UniProt Q17RY6, residues 18-138: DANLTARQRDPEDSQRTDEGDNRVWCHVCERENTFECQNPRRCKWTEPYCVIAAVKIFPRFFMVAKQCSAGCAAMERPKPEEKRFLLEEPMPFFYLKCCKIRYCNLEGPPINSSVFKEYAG

How the values were obtained:
[1] = target: recombinant LY6K protein with histidine and Strep tags (human) (UniProt Q17RY6); experiment: quartz crystal microbalance (QCM) biosensor, immobilized LY6K antigen
[2] = target: recombinant LY6K protein with histidine and Strep tags (human) (UniProt Q17RY6); experiment: QCM biosensor, immobilized recombinant LY6K; Bmax second of the three
[3] = target: recombinant LY6K protein with histidine and Strep tags (human) (UniProt Q17RY6); experiment: ELISA on recombinant LY6K
[4] = target: recombinant LY6K protein with histidine and Strep tags (human) (UniProt Q17RY6); experiment: QCM biosensor, immobilized recombinant LY6K; Bmax highest of the three

B1: murine anti-LY6K antibody G57 (antibody, V domains shown)
VH: EVQLVESGGDLVKPGGSLKLSCAASGFTFNSYGMSWVRQTPDKRLEWVATISSGGTYTYYSDSVKGRFTISRDNAKNILYLHMSSLKSEDTAMYYCARHDWDFFDYWGQGTTLTVSS
VL: DVVMTQTPLSLPVSLGDQASISCRSSQSLVHTDGDTYLNWYLQKPGQSPKLLIYKVSNRFSGVPDRFSGSGSGTDFTLKIRRVEAEDLGVYFCSQNTHVYTFGGGTKLE
binding [1]: binds | binding [2]: binds | binding [3]: binds

B2: humanized 22C-G8 (antibody, V domains shown)
VH: QVQLVQSGAEVKKPGASVKVSCKASGYTFTSYWMHWVRQAPGQGLEWIGEINPSNGGANYNEKFKRRATMTVDKSTSTVYMELSSLRSEDTAVYYCTMGGNFFFAYWGQGTLVTVSS
VL: DVVMTQSPLSLSVTLGQPASISCKSSQSLLASDGKTYLNWFQQRPGQSPRRLIYLVSKLDSGVPDRFSGSGSGTDFTLKISRVEAEDVGVYYCWQGSHFPLTFGGGTKVE
binding [3]: binds

B3: murine anti-LY6K antibody 28C1 (antibody, V domains shown)
VH: QIQLVQSGPELKKPGETVKISCKTSGYTFTNFAMNWVKQTPGKGLRYMGWINTNTGEPTYVEEFKGRFAFSLETSASTAYLQISNLKNEDTATYFCTREWRRSYYFDYWGQGTSLTVSS
VL: DIQMTQTPLSLPVSLGDQASISCRSSQTILHSNGNTYLEWYLQKPGQSLKLLIYKVSNRLSGVPDRFSGSGSGTDFTLKISRVEAEDLGVYYCFQGSHDPFTFGSGTKLE
binding [1]: binds | binding [4]: binds | binding [3]: binds
